Measurements reported in the supplement of paper PMC12067093, “Discovery and optimisation of a covalent ligand for TRIM25 and its application to targeted protein ubiquitination” (Chemical Science, 2025).
This is one part of the list.

Compound: CC1Cc2ccccc2N1C(=O)C1CCCN(C1)C(=O)CCl (mixture of isomers) [TRIM25 ligand 11 (diastereomer mixture)]
Test: probe-labelled cysteine peptide fold change vs DMSO (competition) (log2 fold change); higher = less target engagement (more negative = stronger competition)
Settings: THP-1, incubation time: 4 h
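Further: competitive chemoproteomic profiling in live THP-1 cells with an iodoacetamide desthiobiotin (IA-DTB) probe, comparing probe-labelled peptide intensities in compound-treated cells against DMSO-treated controls.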

## MYO1F_O00160_856_TEFVSLLCK (UniProt O00160)
10 µM
  probe-labelled cysteine peptide fold change: 0.0865
50 µM
  probe-labelled cysteine peptide fold change: 0.117

## MYO1F_O00160_807_GQVCEVLK (UniProt O00160)
10 µM
  probe-labelled cysteine peptide fold change: 0.0875
50 µM
  probe-labelled cysteine peptide fold change: 0.0884

## NAB2_Q15742_499_CPAPGPHPALVEGR (UniProt Q15742)
10 µM
  probe-labelled cysteine peptide fold change: -0.0488
50 µM
  probe-labelled cysteine peptide fold change: -0.139

## NCBP1_Q09161_409_LDTMNTTCVDR (UniProt Q09161)
10 µM
  probe-labelled cysteine peptide fold change: 0.242
50 µM
  probe-labelled cysteine peptide fold change: 0.223

## NAPA_P54920_84_HDAATCFVDAGNAFK (UniProt P54920)
10 µM
  probe-labelled cysteine peptide fold change: 0.0886
50 µM
  probe-labelled cysteine peptide fold change: 0.00981

## NAT10_Q9H0A0_194_FILSLASCK (UniProt Q9H0A0)
10 µM
  probe-labelled cysteine peptide fold change: 0.0363
50 µM
  probe-labelled cysteine peptide fold change: 0.0704

## NAPA_P54920_212_AALCHFCIDMLNAK (UniProt P54920)
10 µM
  probe-labelled cysteine peptide fold change: 0.11
50 µM
  probe-labelled cysteine peptide fold change: 0.136

## NCAPH_Q15003_397_EPCQVQSCQEEMISLGDGDIR (UniProt Q15003)
10 µM
  probe-labelled cysteine peptide fold change: -0.125
50 µM
  probe-labelled cysteine peptide fold change: -0.425

## MYL6_P60660_2_CDFTEDQTAEFK (UniProt P60660)
10 µM
  probe-labelled cysteine peptide fold change: -0.127
50 µM
  probe-labelled cysteine peptide fold change: -0.256

## NAPRT_Q6XQN6_101_ALDCSEVTVR (UniProt Q6XQN6)
10 µM
  probe-labelled cysteine peptide fold change: 0.0227
50 µM
  probe-labelled cysteine peptide fold change: 0.0528

## MYO6_Q9UM54_1102_DTINTSCDIELLAACREEFHR (UniProt Q9UM54)
10 µM
  probe-labelled cysteine peptide fold change: -0.204
50 µM
  probe-labelled cysteine peptide fold change: -0.185

## NAP1L4_Q99733_247_ADPFSFEGPEIVDCDGCTIDWKK (UniProt Q99733)
10 µM
  probe-labelled cysteine peptide fold change: -0.0819
50 µM
  probe-labelled cysteine peptide fold change: -0.272

## MYO6_Q9UM54_252_LCAGASEDIR (UniProt Q9UM54)
10 µM
  probe-labelled cysteine peptide fold change: 0.257
50 µM
  probe-labelled cysteine peptide fold change: 0.415

## NCAPG_Q9BPX3_843_ICNEILTSPCSPEIR (UniProt Q9BPX3)
10 µM
  probe-labelled cysteine peptide fold change: 0.015
50 µM
  probe-labelled cysteine peptide fold change: -0.0965

## NCAPD3_P42695_361_ILLQHICAK (UniProt P42695)
10 µM
  probe-labelled cysteine peptide fold change: -0.145
50 µM
  probe-labelled cysteine peptide fold change: 0.173

## NAA35_Q5VZE5_409_CYLYNNHQAK (UniProt Q5VZE5)
10 µM
  probe-labelled cysteine peptide fold change: 0.05
50 µM
  probe-labelled cysteine peptide fold change: 0.0305

## NAA30_Q147X3_195_LLSSSLTADCSLR (UniProt Q147X3)
10 µM
  probe-labelled cysteine peptide fold change: 0.0453
50 µM
  probe-labelled cysteine peptide fold change: -0.262

## MYO6_Q9UM54_790_RVNHWLTCSR (UniProt Q9UM54)
10 µM
  probe-labelled cysteine peptide fold change: 0.0796
50 µM
  probe-labelled cysteine peptide fold change: 0.254

## NCAPH2_Q6IBW4_309_EREGAPEPASCVK (UniProt Q6IBW4)
10 µM
  probe-labelled cysteine peptide fold change: -0.17
50 µM
  probe-labelled cysteine peptide fold change: -0.293

## NCAPH2_Q6IBW4_230_DTGRTEEQPMEVSVCR (UniProt Q6IBW4)
10 µM
  probe-labelled cysteine peptide fold change: -0.148
50 µM
  probe-labelled cysteine peptide fold change: -0.383

## MYO1E_Q12965_107_ENQCVIISGESGAGK (UniProt Q12965)
10 µM
  probe-labelled cysteine peptide fold change: -0.253
50 µM
  probe-labelled cysteine peptide fold change: -0.391

## MYO6_Q9UM54_1265_CGGIQYLQNAIESR (UniProt Q9UM54)
10 µM
  probe-labelled cysteine peptide fold change: -0.0799
50 µM
  probe-labelled cysteine peptide fold change: -0.0349

## NCAPD3_P42695_1484_DTPACSR (UniProt P42695)
10 µM
  probe-labelled cysteine peptide fold change: -0.0902
50 µM
  probe-labelled cysteine peptide fold change: -0.156

## NCAPG2_Q86XI2_776_ECLLSAPR (UniProt Q86XI2)
10 µM
  probe-labelled cysteine peptide fold change: 0.182
50 µM
  probe-labelled cysteine peptide fold change: 0.165

## NCAPG2_Q86XI2_498_ICPMEHILVR (UniProt Q86XI2)
10 µM
  probe-labelled cysteine peptide fold change: -0.00119
50 µM
  probe-labelled cysteine peptide fold change: 0.0751

## MYO19_Q96H55_755_VFMTDSMLELLECGR (UniProt Q96H55)
10 µM
  probe-labelled cysteine peptide fold change: -0.0496
50 µM
  probe-labelled cysteine peptide fold change: -0.124

## NAPRT_Q6XQN6_533_LQALVNSLCAGQSP (UniProt Q6XQN6)
10 µM
  probe-labelled cysteine peptide fold change: 0.0123
50 µM
  probe-labelled cysteine peptide fold change: -0.0465

## MYO6_Q9UM54_610_NNDALHMSLESLICESR (UniProt Q9UM54)
10 µM
  probe-labelled cysteine peptide fold change: 0.0134
50 µM
  probe-labelled cysteine peptide fold change: -0.0225

## MYO9B_Q13459_234_RVNQCIVISGESGSGK (UniProt Q13459)
10 µM
  probe-labelled cysteine peptide fold change: 0.0631
50 µM
  probe-labelled cysteine peptide fold change: 0.0824

## NADSYN1_Q6IA69_416_ILTTCYMASK (UniProt Q6IA69)
10 µM
  probe-labelled cysteine peptide fold change: -0.201
50 µM
  probe-labelled cysteine peptide fold change: -0.3

## NCAPH_Q15003_114_FTNTQITEHYSTCIK (UniProt Q15003)
10 µM
  probe-labelled cysteine peptide fold change: 0.199
50 µM
  probe-labelled cysteine peptide fold change: -0.135

## MYO18A_Q92614_404_ANAPSCDRLEDLASLVYLNESSVLHTLR (UniProt Q92614)
10 µM
  probe-labelled cysteine peptide fold change: -0.123
50 µM
  probe-labelled cysteine peptide fold change: -0.149

## MYO1C_O00159_802_CPENAFFLDHVR (UniProt O00159)
10 µM
  probe-labelled cysteine peptide fold change: 0.0648
50 µM
  probe-labelled cysteine peptide fold change: 0.2

## NAPRT_Q6XQN6_477+484_LCLQQGQLCEPLPSLAESR (UniProt Q6XQN6)
10 µM
  probe-labelled cysteine peptide fold change: -0.369
50 µM
  probe-labelled cysteine peptide fold change: -0.251

## MYH9_P35579_931_CQHLQAEK (UniProt P35579)
10 µM
  probe-labelled cysteine peptide fold change: 0.0101
50 µM
  probe-labelled cysteine peptide fold change: 0.142

## NAE1_Q13564_483_DDYVHEFCR (UniProt Q13564)
10 µM
  probe-labelled cysteine peptide fold change: 0.148
50 µM
  probe-labelled cysteine peptide fold change: 0.12

## NBN_O60934_31_NCAILIENDQSISR (UniProt O60934)
10 µM
  probe-labelled cysteine peptide fold change: 0.0195
50 µM
  probe-labelled cysteine peptide fold change: 0.0414

## NBEAL2_Q6ZNJ1_1491_GQVFSVLTQLGASATLVRPPDCIKR (UniProt Q6ZNJ1)
10 µM
  probe-labelled cysteine peptide fold change: -0.263
50 µM
  probe-labelled cysteine peptide fold change: -0.151

## NAIP_Q13075_124_FHPDCGFLLNK (UniProt Q13075)
10 µM
  probe-labelled cysteine peptide fold change: -0.0984
50 µM
  probe-labelled cysteine peptide fold change: 0.0151

## NBEAL2_Q6ZNJ1_245_GPAPDPCLVPLALEALVGAVHVLHASR (UniProt Q6ZNJ1)
10 µM
  probe-labelled cysteine peptide fold change: -0.00453
50 µM
  probe-labelled cysteine peptide fold change: -0.382
